Measured values from PubChem BioAssay AID590 (National Center for Advancing Translational Sciences (NCATS), 2007).
Among all 59,000 compounds or so, about 6,500 (11%) were called active. This list was built around the results that the source calls inconclusive (neither active nor inactive); the mix of calls is not that of the screen. Rule as the data show it: active = max dye-equivalent concentration above about 10 nM; inconclusive = mostly about 1.1 nM to 9.6 nM; inactive = weaker than that.

Experiment: qHTS Assay for Spectroscopic Profiling in A350 Spectral Region
Conditions: Compound autofluorescence, 340/450 nm, Alexa 350 dye-equivalents; active compounds read high
With `O=C(NC1CCCCC1)c1ccc2c(=O)n(CC3CCCO3)c(=O)[nH]c2c1` (stereo not given) the max dye-equivalent concentration was active: 15 nM. With `COc1ccc(-c2nc(C#N)c(NCc3ccccc3Cl)o2)cc1OC` the max dye-equivalent concentration was inconclusive: 3.5 nM. In the case of `Cn1nnc(NC(=O)C(c2ccccc2)c2ccccc2)n1`, the max dye-equivalent concentration is reported as inconclusive: 8.8 nM. In the case of `COc1ccc(-n2nc(C(=O)NCC(=O)NCc3ccco3)c3ccccc3c2=O)cc1`, the max dye-equivalent concentration is reported as inconclusive: 2.8 nM. In the case of `CC(C)N(C(=O)CSc1nnc(-c2cc3ccccc3cc2O)n1Cc1ccco1)C(C)C`, the max dye-equivalent concentration is reported as inconclusive: 2.2 nM. For `COc1ccc(C2(O)CCN(C(=O)c3ccc4c(c3)OCO4)CC2)cc1`, the max dye-equivalent concentration was inconclusive: 3 nM. In the case of `CC(n1cnnn1)C12CC3CC(CC(C3)C1)C2` (stereo not given), the max dye-equivalent concentration is reported as inconclusive: 3.7 nM. With `CN(C)CC(CN(C)C)c1ccccn1` the max dye-equivalent concentration was inconclusive: 2.9 nM. With `COc1cccc(CNC(=O)C2CCN(S(=O)(=O)N3CCCCC3)CC2)c1` the max dye-equivalent concentration was inconclusive: 9.2 nM. With `Cc1cccc(N2CSC3=C(C#N)C(c4ccc(C)o4)CC(=O)N3C2)c1` (stereo not given) the max dye-equivalent concentration was inconclusive: 3.9 nM. With `CCOC(=O)c1oc2nc(C(C)C)c3c(c2c1N)CCC3` the max dye-equivalent concentration was inconclusive: 4.8 nM. For `CN(c1ccc(C(=O)Nc2nccs2)cc1)S(=O)(=O)c1ccccc1`, the max dye-equivalent concentration was “inactive”. In the case of `O=c1[nH]c2c(c3c1CCCC3)CCCC2`, the max dye-equivalent concentration is reported as active: 87 nM. In the case of `C/C(=C\C(=O)c1ccc(C)o1)Nc1ccc(C(=O)O)cc1C`, the max dye-equivalent concentration is reported as inconclusive: 6.5 nM. With `COc1ccc(-c2cn3cc(C)ccc3n2)cc1OC` the max dye-equivalent concentration was active: 22 nM. With `O=C(CC(Sc1ccccc1)c1cccs1)c1ccco1` (stereo not given) the max dye-equivalent concentration was inconclusive: 1.1 nM. With `COc1ccccc1-c1c(C)oc2c(CN3CCN(C)CC3)c(O)ccc2c1=O` the max dye-equivalent concentration was active: 610 nM. In the case of `O=C(NCC1CCCO1)C1CCN(S(=O)(=O)Cc2ccccc2)CC1` (stereo not given), the max dye-equivalent concentration is reported as “inactive”. In the case of `COC(=O)c1ccc2c(=O)n(CCN3CCOCC3)c(SCC(=O)NC3CCCCC3)nc2c1`, the max dye-equivalent concentration is reported as inconclusive: 1.2 nM. For `CCCNC(=O)c1c(N)n(-c2ccc3c(c2)OCO3)c2nc3ccccc3nc12`, the max dye-equivalent concentration was active: 37 nM. With `O=c1oc(-c2cccs2)nc2scc(-c3cccs3)c12` the max dye-equivalent concentration was active: 56 nM. For `O=C(Nc1ccon1)c1cnc2sccn2c1=O`, the max dye-equivalent concentration was active: 12 nM. For `CCOC(=O)c1c(NC(=O)Cc2cccs2)sc2c1CCCC2`, the max dye-equivalent concentration was “inactive”. With `COc1ccc(CN(Cc2cc3cc4c(cc3[nH]c2=O)OCO4)C(=O)NC2CCCCC2)cc1` the max dye-equivalent concentration was active: 120 nM. With `COc1cccc(C2C(C#N)=C(N)Oc3cc(C)n(Cc4ccccn4)c(=O)c32)c1OC` (stereo not given) the max dye-equivalent concentration was inconclusive: 1.2 nM. In the case of `Cc1cc(C)nc(N(C#N)Cc2ccc(Br)cc2)n1`, the max dye-equivalent concentration is reported as “inactive”. For `COc1ccc(S(=O)(=O)N2CCN(c3cc(-c4ccccc4)nc4ncnn34)CC2)cc1`, the max dye-equivalent concentration was inconclusive: 3.1 nM. In the case of `COC(=O)C1C(=O)NC(SC)=C(C#N)C1c1ccccc1` (stereo not given), the max dye-equivalent concentration is reported as inconclusive: 1.3 nM. With `COc1ccc(CC(=O)n2nc(-c3cccnc3)nc2N)cc1` the max dye-equivalent concentration was inconclusive: 4.8 nM. With `Cc1cc2cc(CNC(=O)c3cccs3)ccc2n1C` the max dye-equivalent concentration was inconclusive: 6.3 nM. For `CCOC(=O)Cn1c(=O)c2c(nc(Br)n2Cc2ccccc2)n(C)c1=O`, the max dye-equivalent concentration was inconclusive: 1.1 nM. In the case of `O=C(CSCc1c(F)cccc1Cl)NCc1ccco1`, the max dye-equivalent concentration is reported as “inactive”. For `N#Cc1cccc(-c2nc3cnc(N4CCOCC4)nc3n(C[C@H]3CCCO3)c2=O)c1`, the max dye-equivalent concentration was active: 18 nM. For `CN(C)c1ncc2nc(-c3cccs3)c(=O)n(CCC#N)c2n1`, the max dye-equivalent concentration was active: 19 nM. In the case of `C=CCn1c(Cc2cccs2)nnc1SCC(=O)c1cccc(Br)c1`, the max dye-equivalent concentration is reported as inconclusive: 1.4 nM. For `Cc1[nH]nc2c1C(c1ccccn1)N(c1ccc(Br)cc1)C2=O` (stereo not given), the max dye-equivalent concentration was inconclusive: 3.1 nM. For `c1ccc(-c2n[nH]c3ccccc23)cc1`, the max dye-equivalent concentration was inconclusive: 2.9 nM. In the case of `CC(=O)N1CCc2cc(S(=O)(=O)NC(CC(C)C)C(=O)Nc3ccc4c(c3)OCCO4)ccc21` (stereo not given), the max dye-equivalent concentration is reported as “inactive”. For `CCc1ccc(CN(C)CCc2ccccn2)cc1`, the max dye-equivalent concentration was inconclusive: 2.2 nM. In the case of `CCOc1ccccc1N1CCN(c2nc3ccccc3nc2C(C#N)C(=O)OC(C)C)CC1` (stereo not given), the max dye-equivalent concentration is reported as inconclusive: 2.4 nM. For `O=c1c(-c2ccc(F)cc2)nc2cncnc2n1C1CC1`, the max dye-equivalent concentration was inconclusive: 8.1 nM. For `Cc1noc(C)c1-c1ccc2ncnc(N3CCOCC3)c2c1`, the max dye-equivalent concentration was “inactive”. For `COC(=O)c1ccc(N2CCN(C)CC2)c(NC(=O)c2cc3ccccc3o2)c1`, the max dye-equivalent concentration was active: 31 nM. In the case of `COCCn1c(=O)c(-c2ccccc2)nc2cnc(Oc3cccc(Cl)c3)nc21`, the max dye-equivalent concentration is reported as inconclusive: 2.8 nM. In the case of `CCOC(=O)N1CCC(NC(=O)c2cc(C(=O)NCc3ccc(F)cc3)ccc2CO)CC1`, the max dye-equivalent concentration is reported as inconclusive: 2.8 nM. In the case of `CC(/C=C/c1ccc(Cl)o1)=C\C(=O)O`, the max dye-equivalent concentration is reported as inconclusive: 1.3 nM. For `COc1ccc(-c2nc3cnc(N4CCOCC4)nc3n(CCc3ccccc3)c2=O)cc1`, the max dye-equivalent concentration was active: 19 nM. In the case of `Cn1c(=O)cc(SCC(=O)Nc2ccc3c(c2)OCO3)c2ccccc21`, the max dye-equivalent concentration is reported as inconclusive: 1.4 nM. In the case of `N#C[C@H]1CN[C@H](N)N[C@@H]1N`, the max dye-equivalent concentration is reported as “inactive”. In the case of `c1cn(-c2ncnc3ccc(-c4ccoc4)cc23)cn1`, the max dye-equivalent concentration is reported as inconclusive: 5 nM. In the case of `CCc1c(C)sc(NC(=O)c2ccc(Br)o2)c1C(=O)OC`, the max dye-equivalent concentration is reported as active: 190 nM. For `CC1CCCCN1C(=O)N[C@@H](Cc1ccccc1)C(=O)O` (stereo not given in full), the max dye-equivalent concentration was inconclusive: 2.9 nM. In the case of `Cc1cc(C(=O)Nc2sc3c(c2C#N)CCC(C)C3)cs1` (stereo not given), the max dye-equivalent concentration is reported as active: 23 nM. For `CCNc1ncc2nc(-c3ccc(Cl)cc3)c(=O)n(C3CC3)c2n1`, the max dye-equivalent concentration was active: 130 nM. In the case of `COc1ccccc1N=C1SC(C)CN1C(=O)C1CCC1` (stereo not given), the max dye-equivalent concentration is reported as “inactive”. In the case of `COc1ccc(/C=N/n2c(=O)[nH]c3c([nH]c4ccc(C)cc43)c2=O)cc1CN1CCOCC1`, the max dye-equivalent concentration is reported as inconclusive: 9.5 nM. In the case of `O=C(c1cccs1)N1CCN(C2CCN(Cc3ccccc3)CC2)CC1`, the max dye-equivalent concentration is reported as inconclusive: 6.6 nM. In the case of `Cc1cc(NC(=O)COC(=O)COc2cccc3c2OC(C)(C)C3)no1`, the max dye-equivalent concentration is reported as inconclusive: 2.5 nM. For `CCCS(=O)(=O)N1CCN(S(=O)(=O)c2ccc(F)cc2)CC1`, the max dye-equivalent concentration was inconclusive: 1.2 nM. In the case of `CCN1C(=O)C2(C(C(=O)c3ccc(C)o3)=C(O)C(=O)N2CCCN2CCOCC2)c2ccccc21` (stereo not given), the max dye-equivalent concentration is reported as inconclusive: 2 nM. For `CC(C)CC(=O)NC1(C(F)(F)F)C(=O)Nc2c1c(=O)n(C)c(=O)n2C` (stereo not given), the max dye-equivalent concentration was “inactive”. With `Cc1ccc(C)c(Cn2nnc3c(=O)[nH]c(C4CCCN(C(=O)CC(C)C)C4)nc32)c1` (stereo not given) the max dye-equivalent concentration was “inactive”. For `O=C1COc2ccc(C(=O)NCc3ccc4c(c3)OCO4)cc2N1`, the max dye-equivalent concentration was inconclusive: 3.1 nM. In the case of `CCOC(=O)C1=C(O)C(=O)N(c2ccc(S(N)(=O)=O)cc2)C1c1ccc(OC)cc1OC` (stereo not given), the max dye-equivalent concentration is reported as inconclusive: 1.1 nM. In the case of `O=C(Nc1ccncc1)c1cc2ccccc2oc1=O`, the max dye-equivalent concentration is reported as “inactive”. With `CC1(C)O[C@H]2C[C@@H]3[C@H]4CCC5=CC(=O)CC[C@@]5(C)[C@]4(F)[C@@H](O)C[C@@]3(C)[C@@]2(C(=O)CCl)O1` the max dye-equivalent concentration was “inactive”. In the case of `CC(=O)N1CC=C2C(C#N)=C(N)C(C#N)(C#N)[C@H](c3ccoc3)[C@H]2C1`, the max dye-equivalent concentration is reported as active: 93 nM. With `N#Cc1nc(-c2cccs2)oc1NCCN1CCOCC1` the max dye-equivalent concentration was active: 280 nM. For `CC(C)(C)NC(=O)[C@@H]1C[C@H]2CCCC[C@@H]2CN1C[C@H](O)[C@H](Cc1ccccc1)NC(=O)[C@@H](CC(N)=O)NC(=O)c1ccc2ccccc2n1`, the max dye-equivalent concentration was “inactive”. In the case of `CC1(c2ccc(OC(F)F)cc2)NC(=O)N(CC(=O)NC2CCCCC2)C1=O` (stereo not given), the max dye-equivalent concentration is reported as inconclusive: 3.7 nM. In the case of `O=C(CSc1nc2ccccc2c(=O)n1CCCO)NCc1ccccc1`, the max dye-equivalent concentration is reported as “inactive”. For `O=c1c(-c2ccc(F)cc2)nc2cnc(Nc3ccccc3)nc2n1C[C@H]1CCCO1`, the max dye-equivalent concentration was inconclusive: 9.2 nM. With `COC(=O)[C@@H](N)Cc1ccc(O)cc1` the max dye-equivalent concentration was inconclusive: 1.6 nM. For `NC(=O)c1cnccn1`, the max dye-equivalent concentration was “inactive”. In the case of `CCN(CC)c1ccc(C(=S)N2CCN(c3ccccc3)CC2)cc1`, the max dye-equivalent concentration is reported as “inactive”. In the case of `Cc1cc2cc(CN(Cc3ccc4c(c3)OCO4)Cc3nnnn3C3CCCC3)c(=O)[nH]c2cc1C`, the max dye-equivalent concentration is reported as active: 15 nM. In the case of `O=[n+]1c2c(n([O-])c3cc(Br)ccc31)CCC2`, the max dye-equivalent concentration is reported as inconclusive: 4 nM. In the case of `Cc1cccc2cc(CN(CC3CCCO3)C(=O)c3ccco3)c(=O)[nH]c12` (stereo not given), the max dye-equivalent concentration is reported as inconclusive: 2.9 nM. In the case of `CCOC(=O)/C=c1\sc2n(c1=O)CCN=2`, the max dye-equivalent concentration is reported as inconclusive: 5.7 nM. For `Cc1cc(=O)oc(C)c1C(=O)Nc1cnc2ccccc2c1`, the max dye-equivalent concentration was active: 12 nM. For `O=C(Nc1ccccc1)Nc1ccccc1C(=O)NCc1ccco1`, the max dye-equivalent concentration was “inactive”. In the case of `Cc1cc(C)n(Cc2ccccc2Cl)n1`, the max dye-equivalent concentration is reported as inconclusive: 1.1 nM. With `CC(=O)N1CCN(c2ccc(Nc3ncnc4c3oc3ccccc34)cc2)CC1` the max dye-equivalent concentration was inconclusive: 2.6 nM. In the case of `Cc1cnc(CNc2ncncc2-c2ccc(N(C)C)cc2)cn1`, the max dye-equivalent concentration is reported as “inactive”. For `CCCCSc1nnc([C@@H](NC(=O)OC(C)(C)C)C(C)C)o1`, the max dye-equivalent concentration was inconclusive: 1.4 nM. With `CN(Cc1ccco1)c1ncncc1-c1ccoc1` the max dye-equivalent concentration was inconclusive: 2.5 nM. In the case of `N#Cc1nc(Cc2ccccc2)oc1NCc1cccnc1`, the max dye-equivalent concentration is reported as “inactive”. In the case of `Cc1nc2ccccn2c(=O)c1CCN1CCC(C(=O)c2ccc(F)cc2)CC1`, the max dye-equivalent concentration is reported as inconclusive: 6.5 nM. In the case of `O=C(CCNNC(=O)c1ccncc1)NCc1ccccc1`, the max dye-equivalent concentration is reported as inconclusive: 6.2 nM. With `Cc1ccc(C)c(S(=O)(=O)C(C#N)c2nc3ccccc3nc2N2CCOCC2)c1` (stereo not given) the max dye-equivalent concentration was inconclusive: 8.4 nM.
